Assay results from PMC6904755.

Columns and labels:
[1] = molecular target: T1, Drosophila Gemin3, full-length (wild type) (Drosophila) (UniProt Q9V3C4); assay: two-hybrid; serial dilutions spotted on –Leu–Trp–His plates in the presence of 20 mM 3-AT (methods say 30 mM), 28 °C for 3 to 5 days
T1 sequence: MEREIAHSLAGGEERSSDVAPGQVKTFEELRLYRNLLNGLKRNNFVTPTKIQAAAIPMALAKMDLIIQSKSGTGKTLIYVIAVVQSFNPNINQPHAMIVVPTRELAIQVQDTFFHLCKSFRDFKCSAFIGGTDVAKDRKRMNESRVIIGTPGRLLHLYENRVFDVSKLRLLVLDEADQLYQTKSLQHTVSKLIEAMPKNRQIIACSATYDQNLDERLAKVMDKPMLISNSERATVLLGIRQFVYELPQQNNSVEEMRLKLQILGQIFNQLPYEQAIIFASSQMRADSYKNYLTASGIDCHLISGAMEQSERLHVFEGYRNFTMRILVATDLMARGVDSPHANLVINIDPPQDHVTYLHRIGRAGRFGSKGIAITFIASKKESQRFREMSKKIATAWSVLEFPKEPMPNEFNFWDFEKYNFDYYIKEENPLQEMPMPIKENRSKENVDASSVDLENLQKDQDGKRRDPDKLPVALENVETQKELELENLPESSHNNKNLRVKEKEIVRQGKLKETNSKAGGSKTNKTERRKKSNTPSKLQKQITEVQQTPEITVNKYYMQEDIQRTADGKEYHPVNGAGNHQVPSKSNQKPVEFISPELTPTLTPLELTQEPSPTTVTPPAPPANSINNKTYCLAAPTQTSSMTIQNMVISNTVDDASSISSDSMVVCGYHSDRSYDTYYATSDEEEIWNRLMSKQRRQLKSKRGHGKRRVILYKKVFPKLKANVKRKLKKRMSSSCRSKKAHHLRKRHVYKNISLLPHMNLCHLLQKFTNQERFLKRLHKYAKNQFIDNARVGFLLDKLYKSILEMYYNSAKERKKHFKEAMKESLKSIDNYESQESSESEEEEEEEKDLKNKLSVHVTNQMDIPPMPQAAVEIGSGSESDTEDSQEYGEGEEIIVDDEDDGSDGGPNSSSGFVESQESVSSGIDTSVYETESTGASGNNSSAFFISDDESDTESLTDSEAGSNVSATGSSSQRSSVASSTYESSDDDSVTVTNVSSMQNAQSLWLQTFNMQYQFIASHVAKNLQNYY

[2] = molecular target: T1, Drosophila Gemin3, full-length (wild type) (Drosophila); assay: two-hybrid; GAL4-BD baits (pASΔΔ, strain CG1945) mated with GAL4-AD preys (pACT2st, strain Y187); β-galactosidase activity of the GAL1-LacZ reporter measured from extracts of cells grown in –Trp–Leu medium

binding [1]: binds
binding [2]: binds
Substance: Gem3^ΔN, helicase domain deletion mutant of Drosophila Gemin3 (domain or fragment)

Results are given in words; binding and its absence hold for the method and conditions named. Binding calls can cover weak binding; strength is not graded here.
